No constants are given. Whether binding was seen depends on the method and setting. In cells and extracts the contact can be indirect. Here binding means that the protein was enriched with, or labelled near, the bait; the list need not be complete. Sequences can lack the tags named with a protein.
Biological target: T1, Flag-tagged OTUB2 overexpressed in B16-F10 cells (not stated (human or mouse cDNA cloned)) (UniProt Q9CQX0)
T1 sequence: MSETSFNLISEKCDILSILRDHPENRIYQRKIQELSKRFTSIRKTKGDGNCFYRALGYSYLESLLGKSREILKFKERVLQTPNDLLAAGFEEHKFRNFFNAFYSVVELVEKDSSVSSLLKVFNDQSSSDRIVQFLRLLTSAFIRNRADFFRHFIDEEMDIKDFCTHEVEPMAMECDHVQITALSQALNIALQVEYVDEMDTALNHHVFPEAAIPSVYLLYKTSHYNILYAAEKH
Assay: affinity purification with mass spectrometry; lysates of B16-F10 cells overexpressing Flag-tagged OTUB2, immunoprecipitated with anti-Flag M2 affinity gel, Flag peptide eluents analysed by mass spectrometry

By UniProt entry, the sequences of proteins in these tests, tags left out. Residues count along the entry.
UniProt Q9EP73, residues 19-290: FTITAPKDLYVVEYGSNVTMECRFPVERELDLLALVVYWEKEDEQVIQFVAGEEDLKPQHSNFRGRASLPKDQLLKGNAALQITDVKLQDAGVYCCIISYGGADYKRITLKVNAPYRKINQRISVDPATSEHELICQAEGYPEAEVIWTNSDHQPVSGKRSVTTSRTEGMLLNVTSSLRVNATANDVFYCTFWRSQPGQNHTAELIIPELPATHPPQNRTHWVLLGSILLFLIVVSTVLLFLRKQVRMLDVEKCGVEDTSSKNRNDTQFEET

endogenous PD-L1 (B16-F10 cells) (from UniProt Q9EP73 19-290) (ligand)
binding: binds
